In PubChem BioAssay AID540276 (National Center for Advancing Translational Sciences (NCATS), 2011):
The whole screen tested about 300,000 compounds, of which about 5,400 (1.8%) were called active. This list was built around the results that the source calls inconclusive (neither active nor inactive); the mix of calls is not that of the screen. The call rests on the fitted dose curve; tested in HEK293 cells. Where the call is inconclusive, the potency comes from a doubtful curve fit.

Assay: qHTS for inhibitors of binding or entry into cells for Marburg Virus
Settings: Marburg virus pseudotyped entry inhibition, cell reporter; series mostly up to 37.8 µM
Potency means the concentration at half of the fitted maximal effect.

Q: Which Potency does the source give for `O=S(=O)(c1ccc(Nc2ccc(-c3ccc4c(c3)OCCO4)nn2)cc1)N1CCCC1` here?
A: inconclusive: 16.4 µM [inhibitor, single point]

Q: Which Potency does the source give for `Cc1cccc(N2CCN(C(=O)c3c(Cl)cnn3C)CC2)c1C` here?
A: inconclusive: 8.91 µM [inhibitor, partial curve, poor fit]

Q: With `COc1ccc(/C=C/C(=O)Nc2nc3n(n2)C(c2ccccc2)C=C(c2ccccc2)N3)cc1` (stereo not drawn) as the compound, how does the Potency read?
A: inconclusive: 11.2 µM [inhibitor, single point]

Q: For `COc1ccc(OC)c(CN2CCN(Cc3cc(=O)oc4cc(O)ccc34)CC2)c1`, which Potency is on record?
A: inconclusive: 11.2 µM [inhibitor, single point]

Q: With `CCOc1ccc(NC(=O)CNC(=O)COc2ccccc2)cc1` as the compound, how does the Potency read?
A: inconclusive: 2 µM [activator, partial curve, poor fit]

Q: Which Potency does the source give for `C(=N\Nc1nc(-c2ccccc2)cs1)/c1cccs1` here?
A: inconclusive: 15.8 µM [inhibitor, single point]

Q: For `CCc1nc(N2CCCCC2C)c2oc3ccccc3c2n1` (stereo not drawn), which Potency is on record?
A: active: 18.3 µM

Q: For `Cc1ccc(NC(=O)CSc2nc(N)cc(=O)[nH]2)cc1Cl`, which Potency is on record?
A: inactive

Q: Which Potency does the source give for `COc1ccc(CCNC(=O)C/C(C)=N/NC(=O)c2ccc(N)cc2)cc1OC` here?
A: inactive

Q: For `CC(=O)c1cccc(NC(=O)CCS(=O)(=O)c2ccc(Br)s2)c1`, which Potency is on record?
A: inconclusive: 1.78 µM [inhibitor, full curve, poor fit]

Q: For `COc1ccc(OC)c(C2C(C(C)=O)=C(O)C(=O)N2CCN2CCOCC2)c1` (stereo not drawn), which Potency is on record?
A: inconclusive: 6.51 µM [inhibitor, single point]

Q: With `Cc1ccc(C(=O)N=c2sccn2C)cc1C` as the compound, how does the Potency read?
A: inconclusive: 3.55 µM [activator, partial curve, poor fit]

Q: Which Potency does the source give for `COc1ccc(OC)c(NC(=O)NCc2cccnc2)c1` here?
A: inconclusive: 3.55 µM [activator, single point]

Q: For `N#CC1=C(SCC(=O)c2ccccc2)NC2=C(C(=O)CCC2)C1c1ccco1` (stereo not drawn), which Potency is on record?
A: inconclusive: 3.98 µM [inhibitor, partial curve, poor fit]

Q: Which Potency does the source give for `O=C(NCCCn1ccnc1)c1ccc(Cl)c(Cl)c1` here?
A: inactive

Q: For `COc1cccc2cc(C(=O)NCCc3c(C)[nH]c4ccc(Br)cc34)c(=O)oc12`, which Potency is on record?
A: inactive

Q: With `C=CCc1ccc(OCCOc2cccc3ccc(C)nc23)c(OC)c1` as the compound, how does the Potency read?
A: inconclusive: 5.8 µM [inhibitor, partial curve]

Q: With `O=C(COc1ccc2c(c1)CCC2)Nc1ccccn1` as the compound, how does the Potency read?
A: inconclusive: 35.5 µM [inhibitor, single point]

Q: With `CN1CCN(c2ccc(NC(=O)c3ccc(C#N)cc3F)cc2Cl)CC1` as the compound, how does the Potency read?
A: inconclusive: 17.8 µM [inhibitor, single point]

Q: Which Potency does the source give for `CC(=O)C1=C(O)C(=O)N(Cc2ccco2)C1c1ccccc1F` (stereo not drawn) here?
A: inconclusive: 2 µM [inhibitor, partial curve, poor fit]

Q: For `Cc1cc2ccccc2n1CCC(=O)O`, which Potency is on record?
A: inconclusive: 7.94 µM [activator, partial curve]

Q: With `CCn1cc(C(=O)N2CCN(c3ccccn3)CC2)c(=O)c2cc(S(=O)(=O)N3CCC(C)CC3)ccc21` as the compound, how does the Potency read?
A: inconclusive: 6.31 µM [inhibitor, single point]

Q: Which Potency does the source give for `O=[N+]([O-])c1ccc2nc(-c3ccccc3)[nH]c2c1` here?
A: inconclusive: 0.112 µM [activator, full curve, poor fit]

Q: Which Potency does the source give for `COc1ccc(/C=C/C(=O)c2ccc3c4c(cccc24)CC3)cc1` here?
A: inactive

Q: With `COc1ccc(C2=NN(CN3C(=O)C(=O)c4ccccc43)C(c3ccc(OC)cc3)C2)cc1` (stereo not drawn) as the compound, how does the Potency read?
A: inconclusive: 2.31 µM [activator, partial curve, poor fit]

Q: With `Cc1ccc(CN(C)C(=O)c2ccccc2Oc2ccccc2)o1` as the compound, how does the Potency read?
A: inactive

Q: With `COc1ccc(NC(=O)C2CCC2)cc1S(=O)(=O)Nc1cc(C)ccc1Br` as the compound, how does the Potency read?
A: inconclusive: 35.5 µM [inhibitor, single point]

Q: Which Potency does the source give for `CC(C)(C)NC(=O)CSc1nc(N)c(NC(=O)c2ccccc2F)c(=O)[nH]1` here?
A: inconclusive: 6.31 µM [activator, single point]

Q: Which Potency does the source give for `CC(=O)c1c(O)c(C)c(O)c(Cc2c(O)c3c(c(C(=O)/C=C\c4ccccc4)c2O)OC(C)(C)C=C3)c1O` here?
A: active: 3.16 µM

Q: For `CC(C)OCCCN1CN(S(=O)(=O)c2cccs2)c2nc3ccccc3nc21`, which Potency is on record?
A: inactive

Q: With `COc1ccc(NC(=S)N(CCc2c(C)[nH]c3ccc(C)cc23)Cc2ccco2)cc1` as the compound, how does the Potency read?
A: inconclusive: 10.3 µM [inhibitor, partial curve, poor fit]

Q: For `Cc1cc(C)nc(NC(=O)c2ccc(OC(C)C)cc2)n1`, which Potency is on record?
A: inconclusive: 1.26 µM [inhibitor, partial curve, poor fit]

Q: For `COc1cccc(CNC(=O)COC(=O)c2c(NC(C)=O)sc(C)c2C)c1`, which Potency is on record?
A: inconclusive: 15.8 µM [inhibitor, single point]

Q: Which Potency does the source give for `COc1ccc(N2CC(NC(=O)N3CCN(C(=O)c4ccco4)CC3)CC2=O)cc1OC` (stereo not drawn) here?
A: inactive

Q: For `Cc1cc(/N=C/C=C2/N(C)c3ccccc3C2(C)C)n(CCC#N)n1`, which Potency is on record?
A: inconclusive: 4.47 µM [inhibitor, partial curve, poor fit]

Q: With `CCC(C)NC(=O)c1ccc2c(SCC(=O)O)c3c(nc2c1)CCCC3` (stereo not drawn) as the compound, how does the Potency read?
A: inactive

Q: With `CC(C)(C)c1cc(NC(=O)Nc2ccc(Br)cc2Cl)no1` as the compound, how does the Potency read?
A: inconclusive: 11.2 µM [inhibitor, single point]

Q: Which Potency does the source give for `NC(=O)c1ccccc1` here?
A: inconclusive: 1.78 µM [activator, partial curve]

Q: Which Potency does the source give for `CC(=O)C1C(N2CC2)CC2C3CCC4=CC(=O)CCC4(C)C3CCC21C` (stereo not drawn) here?
A: inconclusive: 5.01 µM [inhibitor, full curve, poor fit]

Q: Which Potency does the source give for `CC(NC(=O)c1cc([N+](=O)[O-])cc([N+](=O)[O-])c1)C1CC2CCC1C2` (stereo not drawn) here?
A: inconclusive: 35.5 µM [inhibitor, single point]

Q: With `Clc1ccccc1CN1CCNCC1` as the compound, how does the Potency read?
A: inactive

Q: With `COc1ccc(CC(=O)Nc2nc(-c3ccncc3)cs2)cc1` as the compound, how does the Potency read?
A: inconclusive: 6.31 µM [inhibitor, single point]

Q: With `Cc1nn(Cc2ccccc2Cl)c(Cl)c1/C=C/C(=O)OCC(=O)NC1CCS(=O)(=O)C1` (stereo not drawn) as the compound, how does the Potency read?
A: inconclusive: 35.5 µM [inhibitor, single point]
